Results are given in words; binding and its absence hold for the method and conditions named. For some of these results: Binding can be weak; no strength is given. For some of these results: Binding seen in cells or lysates may run through a third protein.
What was measured:
[1] = biological target: Proprotein convertase subtilisin/kexin type 9 (PCSK9), recombinant full-length (human) (UniProt Q8NBP7); experiment: ELISA; as a5 but in Dulbecco's PBS (with calcium), neutral pH; both purified
[2] = biological target: Proprotein convertase subtilisin/kexin type 9 (PCSK9), recombinant full-length (human) (UniProt Q8NBP7); experiment: ELISA; plate coated with 5 μg/ml PCSK9; 4 μg/ml APLP2 for 2 h in ELISA buffer (150 mM NaCl, 20 mM CaCl2, 20 mM MES, pH 5.0, 5.5, 6.0 or 6.5); fixed; detected with anti-APLP2; both purified
[3] = biological target: Proprotein convertase subtilisin/kexin type 9 (PCSK9), recombinant full-length (human) (UniProt Q8NBP7); experiment: co-IP; purified recombinant proteins, 3 μg/ml each, mixed at pH 6.0 in IP buffer; J16- or IC-coated protein A Dynabeads, 30 min; eluted by boiling; Western blot; both purified
[4] = biological target: Proprotein convertase subtilisin/kexin type 9 (PCSK9), recombinant full-length (human) (UniProt Q8NBP7); experiment: co-IP; PCSK9 premixed with J16 (or IC) added to HepG2 lysate, IP buffer pH 6.0, protein A beads, eluted by boiling, Western blot; only the target purified
[5] = biological target: Proprotein convertase subtilisin/kexin type 9 (PCSK9), recombinant full-length (human) (UniProt Q8NBP7); experiment: co-IP; as a3 but at pH 7.4; only the target purified
[6] = biological target: APLP2-extracellular domain (ECD) (amino acids 1–692) (human) (UniProt Q06481); experiment: ELISA; plate coated with 4 μg/ml APLP2; increasing concentrations of PCSK9 premixed with 2.5 μg/ml LDLR-ECD; pH 6.0 buffer; detected with anti-LDLR; both purified
[7] = biological target: APLP2-extracellular domain (ECD) (amino acids 1–692) (human) (UniProt Q06481); experiment: ELISA; plate coated with 4 μg/ml APLP2; 4 μg/ml PCSK9 premixed with 12 μg/ml IC, J16 or 5F6 and LDLR-ECD in pH 6.0 buffer; detected with anti-LDLR; both purified

Amino acid sequences for entries named in this document (tags omitted). A change or cut given only in a name is not applied to a line headed by its entry.
UniProt Q8NBP7: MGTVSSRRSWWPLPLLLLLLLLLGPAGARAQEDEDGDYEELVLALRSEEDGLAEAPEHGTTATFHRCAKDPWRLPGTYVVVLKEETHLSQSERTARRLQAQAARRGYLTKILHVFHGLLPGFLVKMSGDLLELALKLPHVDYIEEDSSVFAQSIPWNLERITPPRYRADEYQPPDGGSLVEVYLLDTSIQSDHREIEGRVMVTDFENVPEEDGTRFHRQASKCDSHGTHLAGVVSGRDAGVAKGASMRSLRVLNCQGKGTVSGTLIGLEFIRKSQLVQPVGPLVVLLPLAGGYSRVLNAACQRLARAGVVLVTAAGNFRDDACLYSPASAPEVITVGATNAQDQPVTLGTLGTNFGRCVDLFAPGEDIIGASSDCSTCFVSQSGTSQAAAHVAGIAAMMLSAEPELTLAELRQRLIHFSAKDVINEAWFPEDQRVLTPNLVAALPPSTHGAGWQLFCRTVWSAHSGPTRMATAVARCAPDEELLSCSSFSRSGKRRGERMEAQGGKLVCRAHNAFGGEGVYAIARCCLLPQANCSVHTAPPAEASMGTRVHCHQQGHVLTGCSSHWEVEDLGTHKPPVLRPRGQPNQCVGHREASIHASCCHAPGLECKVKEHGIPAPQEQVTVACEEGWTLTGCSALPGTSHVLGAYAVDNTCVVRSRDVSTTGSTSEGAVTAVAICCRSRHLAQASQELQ
UniProt Q06481: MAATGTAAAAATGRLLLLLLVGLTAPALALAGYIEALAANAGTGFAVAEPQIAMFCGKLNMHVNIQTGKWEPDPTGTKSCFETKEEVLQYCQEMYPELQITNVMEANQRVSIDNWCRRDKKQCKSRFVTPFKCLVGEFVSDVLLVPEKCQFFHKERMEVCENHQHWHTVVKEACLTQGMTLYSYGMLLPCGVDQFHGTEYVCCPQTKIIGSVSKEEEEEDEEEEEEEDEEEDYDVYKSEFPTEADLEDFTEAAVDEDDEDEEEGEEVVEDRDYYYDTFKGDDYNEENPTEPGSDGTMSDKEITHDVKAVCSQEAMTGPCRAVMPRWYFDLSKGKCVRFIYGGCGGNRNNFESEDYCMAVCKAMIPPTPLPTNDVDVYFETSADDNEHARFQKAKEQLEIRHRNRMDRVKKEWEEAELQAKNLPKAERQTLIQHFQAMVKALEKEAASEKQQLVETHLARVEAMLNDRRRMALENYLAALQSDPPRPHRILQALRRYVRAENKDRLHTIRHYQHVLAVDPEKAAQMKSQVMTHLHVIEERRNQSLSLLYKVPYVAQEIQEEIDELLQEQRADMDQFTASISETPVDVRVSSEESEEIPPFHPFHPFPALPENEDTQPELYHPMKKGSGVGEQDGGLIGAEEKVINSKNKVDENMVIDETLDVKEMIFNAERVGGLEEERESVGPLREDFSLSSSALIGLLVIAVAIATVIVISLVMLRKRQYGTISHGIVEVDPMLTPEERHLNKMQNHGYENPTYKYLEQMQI
UniProt P05067: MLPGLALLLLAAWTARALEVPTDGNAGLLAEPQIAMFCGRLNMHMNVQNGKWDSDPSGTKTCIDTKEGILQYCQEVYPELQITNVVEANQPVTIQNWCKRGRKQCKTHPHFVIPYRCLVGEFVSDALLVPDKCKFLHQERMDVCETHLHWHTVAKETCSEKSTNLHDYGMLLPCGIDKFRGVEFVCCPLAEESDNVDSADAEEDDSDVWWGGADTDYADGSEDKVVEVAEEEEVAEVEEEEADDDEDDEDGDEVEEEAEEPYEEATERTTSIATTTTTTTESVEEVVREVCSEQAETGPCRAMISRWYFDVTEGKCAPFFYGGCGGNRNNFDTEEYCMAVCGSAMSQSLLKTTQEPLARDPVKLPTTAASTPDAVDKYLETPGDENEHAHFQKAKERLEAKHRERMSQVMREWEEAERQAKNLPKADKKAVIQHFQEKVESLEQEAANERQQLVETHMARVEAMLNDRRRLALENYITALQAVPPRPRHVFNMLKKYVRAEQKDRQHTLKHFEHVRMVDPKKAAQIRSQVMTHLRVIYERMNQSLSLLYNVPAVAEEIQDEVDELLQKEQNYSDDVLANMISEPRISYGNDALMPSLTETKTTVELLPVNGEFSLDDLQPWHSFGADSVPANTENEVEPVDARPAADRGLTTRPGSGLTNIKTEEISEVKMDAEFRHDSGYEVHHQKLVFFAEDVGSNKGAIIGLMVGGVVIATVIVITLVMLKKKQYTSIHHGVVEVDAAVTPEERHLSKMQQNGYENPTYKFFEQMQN

binding [3] | binding [4] | binding [5] | Substance | other results
– | binds | no binding (only at pH 7.4) | Amyloid β A4 protein (APP), endogenous (from UniProt P05067 18-770) | –
– | binds | no binding (only at pH 7.4) | Amyloid-like protein 2 (APLP2), endogenous (from UniProt Q06481 32-763) | –

Further lines, the substance ahead of its results:

Substance | binding [3] | binding [4] | binding [5] | other results
APLP2-extracellular domain (ECD) (amino acids 1–692) (from UniProt Q06481 32-692) (domain or fragment) | binds | – | – | binding [1]: no binding (only at neutral pH; 4 μg/ml APLP2); binding [2]: binds
Amyloid precursor protein (APP)-ECD (amino acids 1–699) (from UniProt P05067 18-699) (domain or fragment) | binds | – | – | –
Proprotein convertase subtilisin/kexin type 9 (PCSK9), recombinant full-length (from UniProt Q8NBP7) | – | – | – | binding [6]: binds; binding [7]: binds

— publication PMC3624461
